Assay results reported in patent US20190077856A1, “METHOD OF TREATING DISEASES USING KINASE MODULATORS” (Memorial Sloan Kettering Cancer Center, priority 2016, published 2019).
At least one compound was matched to its structure with a doubt left.

System: pERK
Experiment: Titration of MEK inhibition by western blot for pERK and ERK
Format: cell-based, human
Conditions: JMN and Meso34 cells; time=72 hours
Excerpt: It was hypothesized that the inhibition of the MAP kinase pathway might act on other components of the antigen presentation machinery in addition to MHC-I molecules, thus allowing increased epitope expression in the more abundant cell surface HLA molecules.

Question: For `CC(=O)Nc1cccc(-n2c(=O)n(C3CC3)c(=O)c3c(Nc4ccc(I)cc4F)n(C)c(=O)c(C)c32)c1` [trametinib], which “dose to sustain inhibition of pERK” value is on record?
Answer: required higher doses
